# Library screening results

Sequences of proteins named here, by UniProt entry; tags and fusion partners are left off.
UniProt E9BF75, entry or part of it: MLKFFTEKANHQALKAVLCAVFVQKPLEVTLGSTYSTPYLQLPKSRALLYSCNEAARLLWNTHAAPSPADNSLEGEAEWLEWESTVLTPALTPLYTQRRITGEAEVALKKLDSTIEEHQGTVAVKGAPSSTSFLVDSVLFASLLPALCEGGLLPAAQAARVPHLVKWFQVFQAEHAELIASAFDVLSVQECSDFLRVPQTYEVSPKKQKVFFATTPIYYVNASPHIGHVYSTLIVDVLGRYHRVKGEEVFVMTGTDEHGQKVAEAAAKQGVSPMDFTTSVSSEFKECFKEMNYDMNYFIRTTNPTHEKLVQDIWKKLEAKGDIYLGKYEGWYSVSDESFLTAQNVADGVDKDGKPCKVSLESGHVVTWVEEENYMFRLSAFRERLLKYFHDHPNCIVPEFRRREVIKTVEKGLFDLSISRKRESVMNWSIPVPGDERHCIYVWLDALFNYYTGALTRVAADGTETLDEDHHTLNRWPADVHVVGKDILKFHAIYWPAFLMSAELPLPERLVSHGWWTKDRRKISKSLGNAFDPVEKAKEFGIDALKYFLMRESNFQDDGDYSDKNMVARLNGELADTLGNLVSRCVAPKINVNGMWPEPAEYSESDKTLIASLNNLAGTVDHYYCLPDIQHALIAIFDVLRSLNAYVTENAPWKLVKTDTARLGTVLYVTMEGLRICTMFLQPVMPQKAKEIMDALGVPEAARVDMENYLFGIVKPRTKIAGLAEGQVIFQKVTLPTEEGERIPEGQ

From ChEMBL document CHEMBL3988442, “University of Dundee, Small-Polar-MMV Screening Library” (2021).

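Primary screen of methionyl-tRNA synthetase; the read-out is not stated. Target: Methionyl-tRNA synthetase (putative), Leishmania donovani (UniProt E9BF75). The test concentration is not given. The values are filed as inhibition. About 68,000 compounds were tested under these conditions; 0.035% (about 24) showed 50% or more at least once.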

All values are in %.
How 0% and 100% were set is not recorded. Most values in the screen are low, and negative values occur.
This is an unselected part of the compounds tested.

| SMILES | Inhibition |
|---|---|
| `Cn1ncc2c(N3CCCC4(CCNC4)C3)nc(C(C)(C)C)nc21` (configuration not stated) | 13.9 |
| `CC(C)(C)c1ccc(-c2n[nH]c3c2CN(CC2CCOC2)CC3)cc1` (configuration not stated) | 8.541 |
| `Cc1cc(C(=O)NCC(F)(F)F)c2c(C3CCNCC3)noc2n1` | 6.857 |
| `CN1CCN(C(CNC(=O)c2ccc(Cl)cc2F)c2cccs2)CC1` (configuration not stated) | -1.873 |
| `O=C(Cn1nc(Br)nc1Br)N1CCCCC1` | 16.84 |
| `CC(C)NC(=O)NC[C@H]1OC[C@@H](NCc2ccc(F)cc2)[C@@H]1O` | 5.537 |
| `CCc1nccn1C1CCCN(C(=O)c2ccc3[nH]c(=O)[nH]c3c2)C1` (configuration not stated) | 5.263 |
| `Cc1n[nH]c(C)c1CCc1nc(C2CC2)n[nH]1` | 15.57 |
| `CCc1cnc(N)nc1N(C)CCc1cnn(C)c1` | 4.301 |
| `Cc1nc(CNC(=O)NC2CCN(c3ncccc3Cl)C2)oc1C` (configuration not stated) | 6.944 |
| `CC(C)c1nccn1C1CCCN(C(=O)c2cccc3[nH]ncc23)C1` (configuration not stated) | 7.904 |
| `CCCN1CCN(S(=O)(=O)c2ncn(C)c2Cl)CC1` | 13.59 |
| `CCn1cc(NC(=O)NCC(O)COc2ccccc2)cn1` (configuration not stated) | 17.75 |
| `COc1ccc2c(C)c(C(=O)NCC3CN(S(C)(=O)=O)CCO3)oc2c1` (configuration not stated) | 7.711 |
| `CC(C)Cc1noc(CN2CCN(C(=O)c3ccccc3F)CC2)n1` | 1.111 |
| `CC(C)[C@]1(O)CN(C(=O)CNC(N)=O)C[C@H]1C` | 11.17 |
| `O=C(CO)N1CCCC(N2CCN(c3ccccc3F)CC2)C1` (configuration not stated) | 12.59 |
| `CC(C)N1CCCC(CNC(=O)Cc2csc(-c3cccnc3)n2)C1` (configuration not stated) | 7.125 |
| `Cc1ccc(C2=CCN(C(=O)C3CCN(C)C(=O)C3)CC2)cc1` (configuration not stated) | 8.659 |
| `CN(CC(=O)NS(=O)(=O)c1ccsc1)Cc1ccccc1` | 6.793 |
| `CCc1cnc2c(c1Nc1ccc(C)c(F)c1)c(=O)n(C)c(=O)n2C` | 10.7 |
| `CC(C)(NCc1cccc(C(N)=O)c1)c1ccc2c(c1)OCO2` | 11.56 |
| `CN1CCN(C(=O)c2cnc3c(cnn3C3CCCC3)c2)CC1` | 2.347 |
| `CC(=O)N1C[C@@H]2CC[C@H](C1)N(S(=O)(=O)c1ccc(F)cc1Cl)C2` | 16.72 |
| `Cn1nc(COc2cncnc2)c2c1CCN(Cc1ccccn1)C2` | 5.109 |
| `COc1cc(N2C[C@H](C(=O)NCC3CC3)[C@@H]3CCO[C@@H]3C2)ncn1` | 18.75 |
| `CCN1C(=O)C(c2ccccc2)CC12CCN(CCO)CC2` (configuration not stated) | 10.56 |
| `Cc1cccc(CN2Cc3ccnn3CC(COCC3CC3)C2)n1` (configuration not stated) | 3.268 |
| `COCCN(CC(C)C)c1cc(C)ncn1` | 6.069 |
| `CC(Nc1cccc(CN2CCOC2=O)c1)C(=O)NC(N)=O` (configuration not stated) | 11.04 |
| `COc1ccccc1OCc1cc(C(=O)N2CCCCCC2CO)n[nH]1` (configuration not stated) | 13.11 |
| `CO[C@@H]1CO[C@@]2(CCCN(S(=O)(=O)c3ccccc3)C2)C1` | 0 |
| `CN(C)C(=O)c1cccn1-c1ccc2c(c1)OCCO2` | 7.165 |
| `COCC1CN(Cc2csc(C)n2)Cc2nccn2C1` (configuration not stated) | 0 |
| `Cc1ccc(CC(=O)N2CCCC(c3cc(C)[nH]n3)C2)cn1` (configuration not stated) | 11.11 |
| `CN(C(=O)c1ccccn1)c1nnc(C2CCOC2)s1` (configuration not stated) | 7.558 |
| `COC(=O)CC(NC(=O)c1cc(OC)c2c(c1)OCCO2)c1cccs1` (configuration not stated) | 6.72 |
| `COc1cc(C2(C(=O)NC3CCN(C4CC4)CC3)CC2)ccc1C` | -1.449 |
| `CCn1cc(CN2CCCn3nc(CNC(=O)N(C)C)cc3C2)cn1` | 8.027 |
| `COc1ccc(C2CCCN2S(=O)(=O)c2cc(F)ccc2F)cc1` (configuration not stated) | 6.59 |
| `CC(c1ccccn1)N(C)Cc1ccc(-n2cncn2)cc1` (configuration not stated) | 17.49 |
| `Cn1ccc(C(=O)NC2CCN(c3ncccn3)CC2)cc1=O` | 15.69 |
| `C=C(C)COc1ccccc1C(=O)N(C)C(C)c1c(C)n[nH]c1C` (configuration not stated) | 0.9804 |
| `Cc1cn[nH]c1C1CCCCN1C(=O)CCN1CCCCCC1` (configuration not stated) | 12.24 |
| `CCC(NC(=O)C1CCN(S(=O)(=O)N(C)C)CC1)c1ccc(C)c(C)c1` (configuration not stated) | 9.449 |
| `OC(CN(Cc1ccccc1)Cc1ccccn1)c1cccs1` (configuration not stated) | 19.1 |
| `CN(C)Cc1ccc(C(=O)N2CCCC(COc3ccc(F)cc3)C2)o1` (configuration not stated) | 16.8 |
| `Cc1cc(C)n(CC(C)CNC(=O)[C@@H](C)NC(=O)OC(C)(C)C)n1` (some centres not stated) | 9.859 |
| `CCSc1cccc(NCc2cccnc2)c1` | 2.71 |
| `COCc1nc(C(=O)NS(=O)(=O)c2cc(Br)ccc2C)cs1` | 7.731 |
| `CCC(=O)NCCCn1c(-c2cccnc2C)cc2cccnc21` | 13.02 |
| `CCc1cnc2c(c1Nc1ccccc1OC)c(=O)n(C)c(=O)n2C` | 11.27 |
| `FC(F)(F)Cn1ccnc1CN1CCCC1c1noc(C2CC2)n1` (configuration not stated) | 9.091 |
| `CNC(=O)[C@H]1C[C@H]2OCC[C@H]2N(CC2CC2)C1` | 13.36 |
| `CN(Cc1cccnc1)C1CC2(CCN(c3ncccn3)CC2)C1` | 15.06 |
| `CC1CN(CC(=O)N2CCCC2)CCN1c1ccc2nncn2n1` (configuration not stated) | 7.311 |
| `CNc1cc(C2CCCN2S(=O)(=O)c2cccc(F)c2)ccn1` (configuration not stated) | -1.286 |
| `Cc1ccc(CNC(=O)c2ccc(=O)n(C)n2)c(OC2CCCC2)c1` | 11.38 |
| `CCn1cc(C(=O)Nc2ccccc2C(=O)OC)cn1` | 6.316 |
| `CCn1ccnc1-c1nccn1-c1ccccc1CN1CCOCC1` | 8.042 |
| `CCO[C@@H]1CC[C@H]2[C@H]1OCCN2C(=O)c1ccc(OC)c(F)c1` | 13.41 |
| `O=C(Nc1cn[nH]c1)c1ccncc1` | 12.02 |
| `O=C([C@H]1CC[C@@H]2[C@@H](CCN2Cc2nccs2)O1)N1CCOCC1` | 6.731 |
| `O=C(NCC1CC1)N1CCN(Cc2ccc3c(c2)OCCO3)CC1` | 17.32 |
| `CNc1cccc(C2CCCN(C(=O)c3coc(C)n3)C2)n1` (configuration not stated) | 8.854 |
| `CNC(=O)c1ccc(S(=O)(=O)NCc2cccnc2N(C)C)cc1` | 21.69 |
| `CC(C)c1nn(C)c(N(C)C)c1CNCCC(=O)NC1CCCC1` | 5.512 |
| `CC(C)c1noc(CNc2ccc(OC(F)F)cc2OC(F)F)n1` | 2.899 |
| `CN(C)c1nccc(N2CCO[C@H]3CN(Cc4ccco4)C[C@H]32)n1` | 8.589 |
| `N#Cc1ccc(CNCC2(c3ccccc3)CCOCC2)cc1` | 18.77 |
| `O=C(O)c1ccc(OC2CCOCC2)cc1` | 8.397 |
| `CCOc1ccc(N(C)S(=O)(=O)c2c[nH]c(C(C)C)n2)cc1` | 1.045 |
| `O=C(NC1CC1)[C@H]1C[C@H]2OCC[C@H]2N(Cc2ccco2)C1` | 8.143 |
| `CC(C)c1noc(CCC(=O)NCC2CCS(=O)(=O)C2)n1` (configuration not stated) | 13.29 |
| `CC(=O)N(Cc1ncc(C)o1)C1CCN(Cc2nccn2C)C1` (configuration not stated) | 6.032 |
| `COc1ccccc1C(=O)Nc1ccc(OC2CCN(C)CC2)cc1` | 7.358 |
| `CNS(=O)(=O)c1cccc(CNc2nccc(C(F)(F)F)n2)c1` | 5.229 |
| `COc1nccc(N2CC[C@@H](N3CCCCCC3)[C@H](O)C2)c1C#N` | 15.54 |
| `O=C(O)c1nnn(-c2cc(F)cc(F)c2)c1-c1ccncc1` | -1.166 |
| `NC(=O)c1ccc(C2CCCN2C(=O)Cn2nc3ccccc3n2)s1` (configuration not stated) | 10 |
| `O=C(CN1CCS(=O)(=O)CC1)NC1CCOc2ccccc21` (configuration not stated) | 10.76 |
| `Cc1ncncc1C(=O)N1CCOC(C)(C(=O)NC2CCCC2)C1` (configuration not stated) | 3.859 |
| `COc1ccc(-c2nc(CN3CCc4cnc(C)nc4C3)no2)cc1` | 24.7 |
| `CCn1c(NCc2ccc(OC)cc2)nc2c(C)nn(C)c2c1=O` | 30.9 |
| `FC(F)(F)c1cc(NCCCn2cccn2)nc(-c2cccnc2)n1` | 6.983 |
| `CC(C)(NCCOc1ccc(CC#N)cc1)c1nccs1` | 13.28 |
| `Cc1nnc(SCCC(=O)N(C)Cc2ccc(F)cc2Cl)[nH]1` | 10.43 |
| `CC(CN1CCCC1=O)NC(=O)c1cc(Cl)c2c(c1)OCO2` (configuration not stated) | 10.17 |
| `Cc1ccnc(OCC(=O)N2CCC(C(N)=O)CC2)n1` | 12.32 |
| `CN(C)S(=O)(=O)N1CCC2(COCc3cnc(-c4ccccc4)nc32)C1` (configuration not stated) | 12.13 |
| `Nc1nc2c(c(NCc3ccncc3)n1)CCCC2` | 5.108 |